Reference: PubChem BioAssay AID330 (DTP/NCI, 2004)
The list does not hold the whole screen: it is rich in T/C values a quarter to a half above the control, in often repeated tests (any T/C) and in doses without a T/C. Further doses and runs are listed elsewhere. T/C is the treated group as % of the vehicle group. Some doses have a count of surviving animals in place of a T/C: the source holds a T/C of zero for them, seemingly a mark for toxic or unscored doses. Some doses without a T/C left all or most animals alive at the check, yet need not have been tolerated: the source hardly ever lists a survival T/C far under the control, and the zero likely stands for such cases as well. Survivors were counted at the toxicity check, usually on the fifth day, unless a day is given; later deaths do not show. Schedules are NCI's codes, taken here to give the interval after Q, in days (D) or hours (H), and the number of doses after X. For survival time, this PubChem deposit counts one and a half times the control or more as active, and values a quarter to a half above the control carry no call in these data; other NCI protocols may use other cut-offs.

Tested on: P388 leukemia ip, CD2F1 mice, survival T/C
Test: NCI In Vivo Anticancer Drug Screen. Data for tumor model P388 Leukemia (intraperitoneal) in CD2F1 (CDF1) mice
Conditions: T/C endpoint: median survival time, higher T/C = longer survival
[1] = dose: 12.5 mg/kg/injection, schedule: Q01DX009 (ip), vehicle: saline
[2] = dose: 25.0 mg/kg/injection, schedule: Q01DX009 (ip), vehicle: saline

`CC1=CCC(C(C)(O)C2CCC3(C)C4=C(C=C5C=CC(=O)OC(C)(C)C5CC4)CCC23C)OC1=O` (configuration not stated) was tested, and the survivor count (dose: 50.0 mg/kg/injection, schedule: Q01DX005 (ip), vehicle: other) was 6 of 6 and the survivor count (dose: 100.0 mg/kg/injection, schedule: Q01DX005 (ip), vehicle: other) was 6 of 6.
In the case of `COC(=O)c1ccc(=O)c2nc3/c(=C/O)c(O)cc(=O)c3[nH]c12`, the T/C (dose: 0.15 mg/kg/injection, schedule: Q01DX009 (ip), vehicle: saline with Tween-80) is reported as 140 % of control and the survivor count (dose: 0.6 mg/kg/injection, schedule: Q01DX009 (ip), vehicle: saline with Tween-80) is reported as 5 of 6.
In the case of `[CH3][Sn]([CH3])([Cl])[CH2]CC[CH2][Sn]([CH3])([Cl])[Cl]`, the survivor count (dose: 6.25 mg/kg/injection, schedule: Q01DX009 (ip), vehicle: saline) is reported as 2 of 6, the survivor count [1] is reported as 0 of 6 and the survivor count [2] is reported as 0 of 6. The survivor count (dose: 50.0 mg/kg/injection, schedule: Q01DX009 (ip), vehicle: saline) was 0 of 6, the survivor count (dose: 100.0 mg/kg/injection, schedule: Q01DX009 (ip), vehicle: saline) was 0 of 6 and the survivor count (dose: 200.0 mg/kg/injection, schedule: Q01DX009 (ip), vehicle: saline) was 0 of 6.
In the case of `CCN(CC)CCCC(C)Nc1ccc2cc(OC)ccc2n1` (configuration not stated), the survivor count (dose: 25.0 mg/kg/injection, schedule: Q01DX005 (ip), vehicle: saline) is reported as 1 of 5, the survivor count (dose: 50.0 mg/kg/injection, schedule: Q01DX005 (ip), vehicle: saline) is reported as 0 of 5 and the survivor count (dose: 100.0 mg/kg/injection, schedule: Q01DX005 (ip), vehicle: saline) is reported as 0 of 5. For the same compound, the survivor count (dose: 200.0 mg/kg/injection, schedule: Q01DX005 (ip), vehicle: saline) was 0 of 5.
`CCCCCCCCCCCCn1cc[n+](CC(=O)N(O)Cc2ccccc2)c1C` was tested, and the survivor count (dose: 25.0 mg/kg/injection, schedule: Q01DX005 (ip), vehicle: saline with Tween-80) was 0 of 5, the survivor count (dose: 50.0 mg/kg/injection, schedule: Q01DX005 (ip), vehicle: saline with Tween-80) was 0 of 5 and the survivor count (dose: 100.0 mg/kg/injection, schedule: Q01DX005 (ip), vehicle: saline with Tween-80) was 0 of 5.
For `CC(=O)OCC1OC(n2cc(CBr)nn2)C(OC(C)=O)C(OC(C)=O)C1OC(C)=O` (configuration not stated), the T/C [1] was 131 % of control, the T/C [2] was 149 % of control and the survivor count (dose: 50.0 mg/kg/injection, schedule: Q01DX009 (ip), vehicle: distilled water + Tween-80) was 5 of 6. The T/C (dose: 50.0 mg/kg/injection, schedule: Q01DX009 (ip), vehicle: saline with Tween-80) was 127 % of control, the survivor count (dose: 100.0 mg/kg/injection, schedule: Q01DX009 (ip), vehicle: distilled water + Tween-80) was 0 of 6 and the survivor count (dose: 100.0 mg/kg/injection, schedule: Q01DX009 (ip), vehicle: saline with Tween-80) was 2 of 6. For the same compound, the survivor count (dose: 200.0 mg/kg/injection, schedule: Q01DX009 (ip), vehicle: saline with Tween-80) was 1 of 6, the survivor count (dose: 200.0 mg/kg/injection, schedule: Q04DX003 (ip), vehicle: saline) was 4 of 6 and the survivor count (dose: 300.0 mg/kg/injection, schedule: Q04DX003 (ip), vehicle: saline) was 4 of 6.
In the case of `COc1cc2ccc3c4c(OC)c(OC)c(OC)cc4c[n+](C)c3c2cc1OC`, the survivor count (dose: 32.0 mg/kg/injection, schedule: Q01DX009 (ip), vehicle: water) is reported as 5 of 6.
